# Results from PubChem BioAssay AID2517 (National Center for Advancing Translational Sciences (NCATS), 2010).
# The chains behind the UniProt entries cited, without tags or fusion partners.
# UniProt P27695, whole entry, looked up: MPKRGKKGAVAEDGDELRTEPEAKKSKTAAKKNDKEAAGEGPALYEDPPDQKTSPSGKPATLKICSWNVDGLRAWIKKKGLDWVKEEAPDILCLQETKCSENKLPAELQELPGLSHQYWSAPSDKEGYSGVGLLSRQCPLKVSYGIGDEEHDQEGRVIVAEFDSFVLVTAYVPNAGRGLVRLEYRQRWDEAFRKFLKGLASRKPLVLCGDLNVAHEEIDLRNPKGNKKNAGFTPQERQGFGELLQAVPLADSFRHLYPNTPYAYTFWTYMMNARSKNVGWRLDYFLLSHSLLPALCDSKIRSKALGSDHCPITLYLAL
# The campaign covered roughly 350,000 compounds. About 1,200 (0.34%) were called active. Inconclusive means that the source gave no clear call. Such entries were picked first, then a sample of the others. The call rests on the fitted dose curve; in most records, active means well fitted inhibition curve with a large enough effect; inconclusive means small, poorly fitted or top-dose-only effect; inactive means no such curve, though single readings can be large or run the other way. Potencies beside an inconclusive call are fits to weak or partial responses and may not hold up.
# Biological target: DNA repair nuclease/redox regulator APEX1 (Homo sapiens) (UniProt P27695)
# Experiment: qHTS Assay for Inhibitors of the Human Apurinic/apyrimidinic Endonuclease 1 (APE1); further: nearly all actives have a fitted effect of over 55% in size;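 on activity change, negative = inhibition: plate controls were vehicle for no effect and reference inhibitor for full effect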
# Conditions: recombinant APE1, TAMRA/BHQ-2 abasic DNA cleavage fluorescence; activity change, negative = inhibition: at 65.8 µM (top of the series)
# Source text: The apurinic/apyrimidinic endonuclease APE1 is the primary mammalian enzyme responsible for the removal of abasic (or AP) sites in DNA and functions centrally in the base excision DNA repair (BER) pathway. […] Thus, targeting APE1 could improve the efficacy of current treatment paradigms by promoting selective sensitization or protection of diseased and normal cells, respectively.
# Inhibition of APE1 activity was screened by utilizing double-stranded short substrate containing tetrahydrofuran (THF) abasic site labeled with rhodamine-type fluorophore (TAMRA) at the 5'-end and with non-fluorescent Black Hole Quencher-2 (BHQ-2) at the opposing 3'-end. An increase in the fluorescence intensity due to incision of the abasic site by APE1 was used to measure the enzyme activity.
# NIH Chemical Genomics Center [NCGC]
# NIH Molecular Libraries Probe Centers Network [MLPCN]
# Assay Provider: David M. Wilson, III, National Institute on Aging, NIH
# Three uL of enzyme solution (0.75 nM APE1 final concentration) was dispensed to 1536-well Greiner black solid bottom plates. […] The plates were incubated for 15 min at room temperature, and then 1 uL of substrate solution (50 nM final concentration of TAMRA/BHQ-2) was added to start the reaction. The plates were immediately transferred into ViewLux High-throughput CCD imager (Perkin-Elmer) in order to measure the reaction progress in kinetic mode (three reads every 60 seconds) using 525 nm excitation and 598 nm emission fluorescence protocol. The fluorescence intensity difference between the third and the first time points was used to compute reaction progress. Results were normalized to buffer only columns and NSC13755 positive controls and negative control DMSO treated wells.
# Potency means the concentration at half of the fitted maximal effect.
SMILES,Potency,"activity change, negative = inhibition"
Cc1ccc(NC(=O)COC(=O)CNC(=O)c2cccc([N+](=O)[O-])c2)cc1S(=O)(=O)N1CCCCCC1,"inconclusive: 0.891 µM [inhibitor, full curve, poor fit]",–
C/C(CCN1CCCCc2nc(C)c(C)cc21)=N\O[C@@H](C)CN1CCCCc2nc(C)c(C)cc21,"inconclusive: 7.08 µM [inhibitor, single point]",–
CN1OC(CC(=O)O)N(c2ccc(Cl)cc2)C1=O (configuration not stated),"inconclusive: 17.8 µM [inhibitor, single point]",–
Cc1nn(-c2ccccc2)c(N2CCCC2)c1/C=N/NC(=O)c1cccc(S(=O)(=O)Nc2ccc(Cl)cc2)c1,"inconclusive: 44.7 µM [inhibitor, single point]",–
CSc1ncccc1C(=O)Nc1nc2ccc(F)cc2s1,"inconclusive: 0.316 µM [inhibitor, full curve, poor fit]",–
O=C(/C=C/c1ccc(O)c(O)c1)c1ccccc1O,–,inactive: -9.36%
Cc1cc(Oc2ccc(N)cn2)cc(C)c1Cl,"inconclusive: 0.562 µM [inhibitor, full curve, poor fit]",–
Cc1cccc(Nc2ncccc2C(=O)O)c1C,–,inactive: 1.87%
CCOC(=O)c1c2c3c(c(Cl)ccc3[nH]c1=O)C(=O)c1ccccc1-2,"inconclusive: 28.2 µM [inhibitor, partial curve]",–
Cc1cc2[nH]c(=O)c(=O)[nH]c2cc1S(=O)(=O)N1CCN(c2cccc(C)c2C)CC1,–,inactive: -33.5%
O=C(O)c1[nH]c2ccc(Cl)cc2c1CC(=O)N1CCN(C(=O)c2ccco2)CC1,–,inactive: -2.77%
O=C(Nc1cccc(F)c1)c1ccc(-c2ccccc2C(F)(F)F)o1,"inconclusive: 3.55 µM [inhibitor, partial curve]",–
COc1ccc(NC=O)c(C(=O)CCNC(C)=O)c1,–,inactive: -2.68%
CCOC(=O)c1c(Nc2ccc(Cl)cc2)sc(/C=C2\C=Nc3ccccc32)c1O,"inconclusive: 25.1 µM [inhibitor, single point]",–
O=C(c1ccccc1)[C@@H]1[C@@H]2C(=O)N(c3ccc(F)cc3)C(=O)[C@@H]2C2CCCN21 (some centres not stated),"inconclusive: 44.7 µM [inhibitor, single point]",–
COc1ccc2c(C)cc(SCC(=O)Nc3nsc(-c4ccc(C)cc4)n3)nc2c1,"inconclusive: 10 µM [inhibitor, single point]",–
O=C(Nc1cccc(-c2nc3ccccc3s2)c1)C1=COCCO1,"inconclusive: 0.178 µM [inhibitor, full curve, poor fit]",–
NC(=O)c1cc([N+](=O)[O-])ccc1NCCN1C(=O)c2ccc(C(=O)O)cc2C1=O,"inconclusive: 5.01 µM [inhibitor, single point]",–
Cc1sc(NC(=S)NC(=O)c2cccs2)nc1-c1ccc(C(C)C)cc1,"inconclusive: 39.8 µM [inhibitor, single point]",–
COCc1cc(SC2CCCCC2)nc(C)n1,"inconclusive: 44.7 µM [inhibitor, single point]",–
Cc1ccc(C(=O)C2CCN(CC(=O)Nc3nc(C)cs3)CC2)cc1,"inconclusive: 20 µM [inhibitor, partial curve, poor fit]",–

# Looked up above.
# Potency with C/C(CCN1CCCCc2nc(C)c(C)cc21)=N\O[C@@H](C)CN1CCCCc2nc(C)c(C)cc21 reads inconclusive: 7.08 µM [inhibitor, single point]
# Potency with Cc1cc(Oc2ccc(N)cn2)cc(C)c1Cl reads inconclusive: 0.562 µM [inhibitor, full curve, poor fit]

# Later entries.

SMILES,Potency,"activity change, negative = inhibition"
O=C(O)c1cc(-c2ccco2)nc2ccc(Br)cc12,active: 12.6 µM,–
O=C(Nc1cc(Cl)cc2c1[nH]c1cnccc12)c1cccnc1,"inconclusive: 28.2 µM [inhibitor, single point]",–
O=C(CCN1C(=O)/C(=C/c2ccco2)SC1=S)Nc1ccc(O)cc1C(=O)O,–,inactive: -4.73%
O=C(O)/C=C/c1cccc(B(O)O)c1,–,inactive: -4.17%
CC(C)Cn1c(SCC(=O)N2CCN(C(=O)c3ccco3)CC2)nc2ccccc2c1=O,"inconclusive: 44.7 µM [inhibitor, single point]",–
CNC(=S)NNC(=O)c1sccc1OCc1ccccc1,"inconclusive: 39.8 µM [inhibitor, single point]",–
CCN(CC)S(=O)(=O)c1ccc(N=Nc2c(N)[nH]c(=O)[nH]c2=O)cc1,"inconclusive: 7.08 µM [inhibitor, single point]",–
N#Cc1nc(Nc2ccccc2)nc(NC2CCCCC2)n1,active: 35.5 µM,–
COc1ccc(Nc2nc(N3CCCC3)nc3ccccc23)c(OC)c1,"inconclusive: 28.2 µM [inhibitor, single point]",–
COc1cc(/C=C2\SC(=Nc3ccc(Cl)c(C(=O)O)c3)NC2=O)c(Br)c(Br)c1O,"inconclusive: 18.9 µM [inhibitor, single point]",–
Cc1ccc(NC2c3ncccc3C(=O)N2Cc2cccs2)cc1C (configuration not stated),"inconclusive: 31.6 µM [inhibitor, single point]",–
Cc1cccc(C)c1Nc1nnc(SCC(=O)Nc2sccc2C#N)s1,"inconclusive: 28.2 µM [inhibitor, single point]",–
CC(=O)N1[C@H](Cc2ccccc2)C=C[C@]1(C)C(=O)NCCc1c[nH]c2ccccc12,"inconclusive: 5.62 µM [inhibitor, partial curve]",–
O=c1c(-c2ccc(Cl)cc2)nc2cnc(N3CCOCC3)nc2n1Cc1ccc(F)cc1,–,inactive: -1.03%
CC(C)=CCC/C(C)=C/CO/N=C1/[C@H]2O[C@@H]2[C@@H](O)[C@H]2[C@H]1CCn1c(=O)n(C)c(=O)n12,–,inactive: 15.3% [at 12.4 µM]
Cc1ccc(C2=NN(S(C)(=O)=O)C(c3ccc4nccnc4c3)C2)cc1 (configuration not stated),"inconclusive: 0.224 µM [inhibitor, full curve]",–
O=C(O)C/C(=C\c1cccc(NC(=O)c2ccccc2Cl)c1)c1nc2ccccc2s1,–,inactive: -0.0292%
Fc1ccc(CSc2nc3ccccc3[nH]2)cc1,–,inactive: -2.95%
CCCCCCC#Cc1cc(OC)c(OC)cc1C(N1CC(C)c2ccccc21)N1CC(C)c2ccccc21 (configuration not stated),"inconclusive: 3.55 µM [inhibitor, single point]",–
O=C(Nc1nc(-c2ccco2)c(-c2ccco2)s1)C1CC(=O)N(c2ccc3c(c2)OCCO3)C1 (configuration not stated),active: 2.51 µM,–
CCN(CC)S(=O)(=O)c1ccc(NC(=O)C(C)N(c2ccccc2)S(C)(=O)=O)cc1 (configuration not stated),"inconclusive: 22.4 µM [inhibitor, single point]",–
